Reference: paper PMC12225533
These are yes or no findings as the source states them, for the method shown. In cells and extracts the contact can be indirect. Some entries that bind do so weakly or less than the wild type.

Chains of the proteins cited; added tags and fusions are not shown.
UniProt Q86WI3: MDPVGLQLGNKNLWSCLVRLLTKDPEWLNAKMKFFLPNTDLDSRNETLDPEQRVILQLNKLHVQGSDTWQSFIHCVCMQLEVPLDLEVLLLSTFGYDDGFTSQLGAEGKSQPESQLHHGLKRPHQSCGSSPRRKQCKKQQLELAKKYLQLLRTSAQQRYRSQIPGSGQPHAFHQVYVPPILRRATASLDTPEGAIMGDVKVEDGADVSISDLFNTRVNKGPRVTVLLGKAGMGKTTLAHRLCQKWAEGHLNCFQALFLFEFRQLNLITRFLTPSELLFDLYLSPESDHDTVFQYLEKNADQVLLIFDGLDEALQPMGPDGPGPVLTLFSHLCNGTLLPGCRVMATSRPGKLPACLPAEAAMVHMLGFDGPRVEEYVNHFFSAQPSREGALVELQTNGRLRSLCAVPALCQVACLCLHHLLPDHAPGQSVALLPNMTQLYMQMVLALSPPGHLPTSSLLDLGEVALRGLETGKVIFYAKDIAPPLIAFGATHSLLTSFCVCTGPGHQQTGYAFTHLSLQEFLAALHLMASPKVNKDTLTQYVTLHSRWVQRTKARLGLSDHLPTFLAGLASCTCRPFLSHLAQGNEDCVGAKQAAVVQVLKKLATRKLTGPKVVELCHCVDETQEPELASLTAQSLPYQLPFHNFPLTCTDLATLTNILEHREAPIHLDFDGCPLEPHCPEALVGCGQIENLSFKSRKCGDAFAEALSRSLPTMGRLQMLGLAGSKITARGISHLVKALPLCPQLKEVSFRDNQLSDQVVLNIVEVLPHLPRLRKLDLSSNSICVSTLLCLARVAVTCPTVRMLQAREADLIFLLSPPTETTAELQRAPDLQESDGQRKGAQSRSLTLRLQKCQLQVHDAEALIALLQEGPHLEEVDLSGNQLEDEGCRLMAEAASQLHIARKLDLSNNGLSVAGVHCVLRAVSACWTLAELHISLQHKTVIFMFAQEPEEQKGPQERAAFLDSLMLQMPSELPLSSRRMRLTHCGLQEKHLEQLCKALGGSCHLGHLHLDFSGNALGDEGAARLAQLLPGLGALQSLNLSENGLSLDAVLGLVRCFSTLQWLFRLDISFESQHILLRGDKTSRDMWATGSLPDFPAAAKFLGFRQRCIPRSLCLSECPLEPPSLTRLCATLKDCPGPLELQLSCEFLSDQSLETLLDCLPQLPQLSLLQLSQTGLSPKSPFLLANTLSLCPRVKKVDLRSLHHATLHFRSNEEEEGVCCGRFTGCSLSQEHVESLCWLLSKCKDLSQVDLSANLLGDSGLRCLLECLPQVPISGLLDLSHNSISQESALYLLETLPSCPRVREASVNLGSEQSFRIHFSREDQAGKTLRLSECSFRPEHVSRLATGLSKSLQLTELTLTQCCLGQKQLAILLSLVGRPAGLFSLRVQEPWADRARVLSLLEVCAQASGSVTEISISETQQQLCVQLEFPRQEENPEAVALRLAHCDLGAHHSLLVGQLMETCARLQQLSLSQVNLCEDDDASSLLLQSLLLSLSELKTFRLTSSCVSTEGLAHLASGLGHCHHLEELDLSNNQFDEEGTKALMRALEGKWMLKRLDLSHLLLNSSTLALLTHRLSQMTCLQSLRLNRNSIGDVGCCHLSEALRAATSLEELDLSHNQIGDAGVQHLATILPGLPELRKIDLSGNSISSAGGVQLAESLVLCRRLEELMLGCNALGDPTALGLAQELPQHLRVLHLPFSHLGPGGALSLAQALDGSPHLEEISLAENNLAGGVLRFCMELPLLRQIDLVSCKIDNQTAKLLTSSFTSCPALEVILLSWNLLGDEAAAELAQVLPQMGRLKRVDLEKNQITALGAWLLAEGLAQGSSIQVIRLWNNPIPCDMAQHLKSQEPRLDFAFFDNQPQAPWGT
UniProt Q01628: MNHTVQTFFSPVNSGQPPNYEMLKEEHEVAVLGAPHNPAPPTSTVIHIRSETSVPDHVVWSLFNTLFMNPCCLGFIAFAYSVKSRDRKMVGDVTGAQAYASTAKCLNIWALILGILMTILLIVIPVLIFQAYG

Biological target: NLRC5 (UniProt Q86WI3)
Assay: co-IP; antibodies (4 µg) or IgG controls on mixed Dynabeads A and G; sonicated NP40 lysates of NCI-H446 and NCI-H69 cells; overnight at 4 °C; five washes with NP40 buffer; western blot

binding: binds
Substance: interferon-induced transmembrane protein 3 (from UniProt Q01628 1-133)
